Results from one PubChem assay

Data taken from PubChem BioAssay AID504749, deposited by NCATS (2011).

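A panel of P. falciparum strains inside erythrocytes is exposed to compounds for three days, then a DNA-binding dye reports the amount of parasite DNA.
Each compound was titrated across a series from about 0.000037 to 29 µM.
The number is the fitted AC50, the concentration giving a half-maximal change in signal; a lower value means higher potency, whether the curve shows a decrease or an increase.
Calls follow the curve class and fit quality: every row here is inconclusive, covering signal-raising curves and weak, poorly fitted, partial or highest-dose-only inhibition curves.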

Values are in µM.
All entries here are filed as inconclusive.
Only part of the assay is shown, chiefly results filed as inconclusive.
Potencies fitted to partial, single-point or poorly fitting curves are rough.
Some entries filed as inconclusive have a full curve.
The first word of each remark tells which way the curve ran; it can be opposite to the aim of the assay.

| Compound | tested on / at | potency (µM) | remark |
|---|---|---|---|
| `C/C(=C\C(=O)OCCCCCCCCC(=O)O)C[C@@H]1OC[C@H](C[C@@H]2O[C@H]2[C@@H](C)[C@H](C)O)[C@@H](O)[C@H]1O` | CP237 | 0.1413 | inhibitor, full curve |
| `C/C(=C\C(=O)OCCCCCCCCC(=O)O)C[C@@H]1OC[C@H](C[C@@H]2O[C@H]2[C@@H](C)[C@H](C)O)[C@@H](O)[C@H]1O` | AA1029 | 0.1585 | inhibitor, full curve |
| `C/C(=C\C(=O)OCCCCCCCCC(=O)O)C[C@@H]1OC[C@H](C[C@@H]2O[C@H]2[C@@H](C)[C@H](C)O)[C@@H](O)[C@H]1O` | ECU | 0.3162 | inhibitor, full curve |
| `C/C(=C\C(=O)OCCCCCCCCC(=O)O)C[C@@H]1OC[C@H](C[C@@H]2O[C@H]2[C@@H](C)[C@H](C)O)[C@@H](O)[C@H]1O` | CP203 | 0.1694 | inhibitor, full curve |
| `C/C(=C\C(=O)OCCCCCCCCC(=O)O)C[C@@H]1OC[C@H](C[C@@H]2O[C@H]2[C@@H](C)[C@H](C)O)[C@@H](O)[C@H]1O` | CP286 | 0.0794 | inhibitor, full curve |
| `C/C(=C\C(=O)OCCCCCCCCC(=O)O)C[C@@H]1OC[C@H](C[C@@H]2O[C@H]2[C@@H](C)[C@H](C)O)[C@@H](O)[C@H]1O` | CP217 | 0.1 | inhibitor, full curve |
| `C/C(=C\C(=O)OCCCCCCCCC(=O)O)C[C@@H]1OC[C@H](C[C@@H]2O[C@H]2[C@@H](C)[C@H](C)O)[C@@H](O)[C@H]1O` | DIV30 | 0.0675 | inhibitor, full curve |
| `C/C(=C\C(=O)OCCCCCCCCC(=O)O)C[C@@H]1OC[C@H](C[C@@H]2O[C@H]2[C@@H](C)[C@H](C)O)[C@@H](O)[C@H]1O` | CP215 | 0.151 | inhibitor, full curve |
| `C/C(=C\C(=O)OCCCCCCCCC(=O)O)C[C@@H]1OC[C@H](C[C@@H]2O[C@H]2[C@@H](C)[C@H](C)O)[C@@H](O)[C@H]1O` | CP262 | 0.1901 | inhibitor, full curve |
| `C/C(=C\C(=O)OCCCCCCCCC(=O)O)C[C@@H]1OC[C@H](C[C@@H]2O[C@H]2[C@@H](C)[C@H](C)O)[C@@H](O)[C@H]1O` | PC26 | 0.3381 | inhibitor, full curve |
| `C/C(=C\C(=O)OCCCCCCCCC(=O)O)C[C@@H]1OC[C@H](C[C@@H]2O[C@H]2[C@@H](C)[C@H](C)O)[C@@H](O)[C@H]1O` | ICS | 0.0708 | inhibitor, full curve |
| `C/C(=C\C(=O)OCCCCCCCCC(=O)O)C[C@@H]1OC[C@H](C[C@@H]2O[C@H]2[C@@H](C)[C@H](C)O)[C@@H](O)[C@H]1O` | 7G8 | 0.0708 | inhibitor, full curve |
| `C/C(=C\C(=O)OCCCCCCCCC(=O)O)C[C@@H]1OC[C@H](C[C@@H]2O[C@H]2[C@@H](C)[C@H](C)O)[C@@H](O)[C@H]1O` | PC49 | 0.3548 | inhibitor, full curve |
| `C/C(=C\C(=O)OCCCCCCCCC(=O)O)C[C@@H]1OC[C@H](C[C@@H]2O[C@H]2[C@@H](C)[C@H](C)O)[C@@H](O)[C@H]1O` | CP305 | 0.2133 | inhibitor, full curve |
| `C/C(=C\C(=O)OCCCCCCCCC(=O)O)C[C@@H]1OC[C@H](C[C@@H]2O[C@H]2[C@@H](C)[C@H](C)O)[C@@H](O)[C@H]1O` | CP185 | 0.3162 | inhibitor, full curve |
| `C/C(=C\C(=O)OCCCCCCCCC(=O)O)C[C@@H]1OC[C@H](C[C@@H]2O[C@H]2[C@@H](C)[C@H](C)O)[C@@H](O)[C@H]1O` | CP329 | 0.12 | inhibitor, full curve |
| `C/C(=C\C(=O)OCCCCCCCCC(=O)O)C[C@@H]1OC[C@H](C[C@@H]2O[C@H]2[C@@H](C)[C@H](C)O)[C@@H](O)[C@H]1O` | CP247 | 0.2818 | inhibitor, full curve |
| `C/C(=C\C(=O)OCCCCCCCCC(=O)O)C[C@@H]1OC[C@H](C[C@@H]2O[C@H]2[C@@H](C)[C@H](C)O)[C@@H](O)[C@H]1O` | CP297 | 0.2393 | inhibitor, full curve |
| `COCC(C)N(C(=O)CCl)c1c(C)csc1C` (centres undefined) | DIV30 | 0.12 | activator, full curve, poor fit |
| `COCC(C)N(C(=O)CCl)c1c(C)csc1C` (centres undefined) | ICS | 3.981 | inhibitor, single point |
| `COCC(C)N(C(=O)CCl)c1c(C)csc1C` (centres undefined) | CP297 | 1.346 | inhibitor, partial curve, poor fit |
| `C[C@]12CCC(=O)C[C@@H]1CC[C@@H]1[C@@H]2CC[C@]2(C)[C@@H](O)CC[C@@H]12` | CP250 | 0.8913 | inhibitor, single point |
| `C[C@]12CCC(=O)C[C@@H]1CC[C@@H]1[C@@H]2CC[C@]2(C)[C@@H](O)CC[C@@H]12` | CP260 | 11.22 | inhibitor, single point |
| `CCC1(CC)C(=O)NC(=O)NC1=O` | 7G8 | 11.22 | inhibitor, single point |
| `C[C@]12CCC(=O)C[C@@H]1CC[C@@H]1[C@@H]2CC[C@]2(C)C=CC[C@@H]12` | CP286 | 12.59 | inhibitor, single point |
| `C[C@]12CCC(=O)C[C@@H]1CC[C@@H]1[C@@H]2CC[C@]2(C)C=CC[C@@H]12` | 7G8 | 8.912 | inhibitor, partial curve |
| `C[C@]12CCC(=O)C[C@@H]1CC[C@@H]1[C@@H]2CC[C@]2(C)C=CC[C@@H]12` | CP335 | 12 | inhibitor, partial curve, poor fit |
| `C[C@]12CCC(=O)C[C@@H]1CC[C@@H]1[C@@H]2CC[C@]2(C)C=CC[C@@H]12` | CP250 | 17.78 | inhibitor, single point |
| `C[C@]12CCC(=O)C[C@@H]1CC[C@@H]1[C@@H]2CC[C@]2(C)C=CC[C@@H]12` | CP260 | 12.59 | inhibitor, single point |
| `C[C@]12CCC(=O)C[C@@H]1CC[C@@H]1[C@@H]2CC[C@]2(C)C=CC[C@@H]12` | CP237 | 15.85 | inhibitor, single point |
| `C[C@]12CCC(=O)C[C@@H]1CC[C@@H]1[C@@H]2CC[C@]2(C)C=CC[C@@H]12` | W2 | 8.492 | inhibitor, partial curve, poor fit |
| `C[C@]12CCC(=O)C[C@@H]1CC[C@@H]1[C@@H]2CC[C@]2(C)C=CC[C@@H]12` | N140 | 19.95 | inhibitor, single point |
| `C[C@]12CCC(=O)C[C@@H]1CC[C@@H]1[C@@H]2CC[C@]2(C)C=CC[C@@H]12` | ICS | 12.59 | inhibitor, partial curve |
| `C[C@]12CCC(=O)C[C@@H]1CC[C@@H]1[C@@H]2CC[C@]2(C)C=CC[C@@H]12` | HB3 | 12.59 | inhibitor, single point |
| `Cc1ccc(O)c2ncccc12` | TAB165 | 14.13 | inhibitor, single point |
| `Cc1ccc(O)c2ncccc12` | GB4 | 19.01 | inhibitor, single point |
| `Cc1ccc(O)c2ncccc12` | N140 | 17.78 | inhibitor, single point |
| `Cc1ccc(O)c2ncccc12` | CP286 | 17.78 | inhibitor, single point |
| `Cc1ccc(O)c2ncccc12` | CP260 | 10 | inhibitor, single point |
| `Cc1ccc(O)c2ncccc12` | CP194 | 21.33 | inhibitor, single point |
| `Cc1ccc(O)c2ncccc12` | DIV17 | 1.346 | inhibitor, partial curve, poor fit |
| `Cc1ccc(O)c2ncccc12` | parasite line A | 17.78 | inhibitor, single point |
| `Cc1ccc(O)c2ncccc12` | AS120 | 17.78 | inhibitor, single point |
| `Cc1ccc(O)c2ncccc12` | TAB109 | 14.13 | inhibitor, single point |
| `Cc1ccc(O)c2ncccc12` | 3D7 | 19.95 | inhibitor, single point |
| `Cc1ccc(O)c2ncccc12` | TAB113 | 3.981 | inhibitor, single point |
| `Cc1ccc(O)c2ncccc12` | DIV14 | 19.01 | inhibitor, single point |

Repeated from the top, 5 entries:

C/C(=C\C(=O)OCCCCCCCCC(=O)O)C[C@@H]1OC[C@H](C[C@@H]2O[C@H]2[C@@H](C)[C@H](C)O)[C@@H](O)[C@H]1O [CP237] read potency 0.1413 µM (inhibitor, full curve).
C/C(=C\C(=O)OCCCCCCCCC(=O)O)C[C@@H]1OC[C@H](C[C@@H]2O[C@H]2[C@@H](C)[C@H](C)O)[C@@H](O)[C@H]1O [AA1029] read potency 0.1585 µM (inhibitor, full curve).
C/C(=C\C(=O)OCCCCCCCCC(=O)O)C[C@@H]1OC[C@H](C[C@@H]2O[C@H]2[C@@H](C)[C@H](C)O)[C@@H](O)[C@H]1O [ECU] read potency 0.3162 µM (inhibitor, full curve).
C/C(=C\C(=O)OCCCCCCCCC(=O)O)C[C@@H]1OC[C@H](C[C@@H]2O[C@H]2[C@@H](C)[C@H](C)O)[C@@H](O)[C@H]1O [CP203] read potency 0.1694 µM (inhibitor, full curve).
C/C(=C\C(=O)OCCCCCCCCC(=O)O)C[C@@H]1OC[C@H](C[C@@H]2O[C@H]2[C@@H](C)[C@H](C)O)[C@@H](O)[C@H]1O [CP286] read potency 0.0794 µM (inhibitor, full curve).